Reference: ChEMBL document CHEMBL4316593 (Eur J Med Chem, 2019)
This continues a long series; more values of the same kind are listed elsewhere.

Experiments:
Type in all cases: cell-based
Settings in all cases: U-87MG ATCC
[1] = Inhibition of RTK/PI3K/AKT/mTOR signaling in human U87 cells assessed as down regulation of WASL gene expression at cytotoxic IC50 measured after 48 hrs relative to control
[2] = Inhibition of RTK/PI3K/AKT/mTOR signaling in human U87 cells assessed as up regulation of RASGRF1 gene expression at cytotoxic IC50 measured after 48 hrs relative to control
[3] = Inhibition of RTK/PI3K/AKT/mTOR signaling in human U87 cells assessed as up regulation of TMEM184A gene expression at cytotoxic IC50 measured after 48 hrs relative to control
[4] = Inhibition of RTK/PI3K/AKT/mTOR signaling in human U87 cells assessed as down regulation of ATAD2 gene expression at cytotoxic IC50 measured after 48 hrs relative to control
[5] = Inhibition of RTK/PI3K/AKT/mTOR signaling in human U87 cells assessed as down regulation of GIT1 gene expression at cytotoxic IC50 measured after 48 hrs relative to control
[6] = Inhibition of RTK/PI3K/AKT/mTOR signaling in human U87 cells assessed as down regulation of ALAS1 gene expression at cytotoxic IC50 measured after 48 hrs relative to control
[7] = Inhibition of RTK/PI3K/AKT/mTOR signaling in human U87 cells assessed as up regulation of zona pellucida glycoprotein 3 gene expression at cytotoxic IC50 measured after 48 hrs relative to control
[8] = Inhibition of RTK/PI3K/AKT/mTOR signaling in human U87 cells assessed as up regulation of PLLP gene expression at cytotoxic IC50 measured after 48 hrs relative to control
[9] = Inhibition of RTK/PI3K/AKT/mTOR signaling in human U87 cells assessed as up regulation of arginase 2 gene expression at cytotoxic IC50 measured after 48 hrs relative to control
[10] = Inhibition of RTK/PI3K/AKT/mTOR signaling in human U87 cells assessed as up regulation of CLIC4 gene expression at cytotoxic IC50 measured after 48 hrs relative to control
[11] = Inhibition of RTK/PI3K/AKT/mTOR signaling in human U87 cells assessed as up regulation of SLC7A2 gene expression at cytotoxic IC50 measured after 48 hrs relative to control
[12] = Inhibition of RTK/PI3K/AKT/mTOR signaling in human U87 cells assessed as down regulation of ZNF213 gene expression at cytotoxic IC50 measured after 48 hrs relative to control
[13] = Inhibition of RTK/PI3K/AKT/mTOR signaling in human U87 cells assessed as up regulation of ITPKA gene expression at cytotoxic IC50 measured after 48 hrs relative to control
[14] = Inhibition of RTK/PI3K/AKT/mTOR signaling in human U87 cells assessed as down regulation of TUBG1 gene expression at cytotoxic IC50 measured after 48 hrs relative to control
[15] = Inhibition of RTK/PI3K/AKT/mTOR signaling in human U87 cells assessed as up regulation of PHD finger protein 1 gene expression at cytotoxic IC50 measured after 48 hrs relative to control
[16] = Inhibition of RTK/PI3K/AKT/mTOR signaling in human U87 cells assessed as down regulation of MMD gene expression at cytotoxic IC50 measured after 48 hrs relative to control
[17] = Inhibition of RTK/PI3K/AKT/mTOR signaling in human U87 cells assessed as down regulation of VPS26B gene expression at cytotoxic IC50 measured after 48 hrs relative to control
[18] = Inhibition of RTK/PI3K/AKT/mTOR signaling in human U87 cells assessed as down regulation of PHTF1 gene expression at cytotoxic IC50 measured after 48 hrs relative to control
[19] = Inhibition of RTK/PI3K/AKT/mTOR signaling in human U87 cells assessed as down regulation of ADAT1 gene expression at cytotoxic IC50 measured after 48 hrs relative to control
[20] = Inhibition of RTK/PI3K/AKT/mTOR signaling in human U87 cells assessed as up regulation of syntaxin 2 gene expression at cytotoxic IC50 measured after 48 hrs relative to control
[21] = Inhibition of RTK/PI3K/AKT/mTOR signaling in human U87 cells assessed as down regulation of NATD1 gene expression at cytotoxic IC50 measured after 48 hrs relative to control
[22] = Inhibition of RTK/PI3K/AKT/mTOR signaling in human U87 cells assessed as up regulation of spexin hormone gene expression at cytotoxic IC50 measured after 48 hrs relative to control
[23] = Inhibition of RTK/PI3K/AKT/mTOR signaling in human U87 cells assessed as down regulation of LIN52 gene expression at cytotoxic IC50 measured after 48 hrs relative to control
[24] = Inhibition of RTK/PI3K/AKT/mTOR signaling in human U87 cells assessed as up regulation of solute carrier family 35 member E2B gene expression at cytotoxic IC50 measured after 48 hrs relative to control
[25] = Inhibition of RTK/PI3K/AKT/mTOR signaling in human U87 cells assessed as up regulation of fibronectin type III and SPRY domain containing 1 gene expression at cytotoxic IC50 measured after 48 hrs relative to control
[26] = Inhibition of RTK/PI3K/AKT/mTOR signaling in human U87 cells assessed as down regulation of ZFP36 gene expression at cytotoxic IC50 measured after 48 hrs relative to control
[27] = Inhibition of RTK/PI3K/AKT/mTOR signaling in human U87 cells assessed as up regulation of ADGRG1 gene expression at cytotoxic IC50 measured after 48 hrs relative to control
[28] = Inhibition of RTK/PI3K/AKT/mTOR signaling in human U87 cells assessed as down regulation of ANKRD50 gene expression at cytotoxic IC50 measured after 48 hrs relative to control
[29] = Inhibition of RTK/PI3K/AKT/mTOR signaling in human U87 cells assessed as down regulation of KLHL38 gene expression at cytotoxic IC50 measured after 48 hrs relative to control
[30] = Inhibition of RTK/PI3K/AKT/mTOR signaling in human U87 cells assessed as up regulation of NADH dehydrogenase, subunit 3 (complex I) gene expression at cytotoxic IC50 measured after 48 hrs relative to control
[31] = Inhibition of RTK/PI3K/AKT/mTOR signaling in human U87 cells assessed as up regulation of ER degradation enhancing alpha-mannosidase like protein 1 gene expression at cytotoxic IC50 measured after 48 hrs relative to control
[32] = Inhibition of RTK/PI3K/AKT/mTOR signaling in human U87 cells assessed as up regulation of PCK2 gene expression at cytotoxic IC50 measured after 48 hrs relative to control

Molecule CC(=O)C(=NNc1ccccc1C#N)C(C)=O has a log2FC [1] of -1.09, a log2FC [2] of 2.31 and a log2FC [3] of 1.88. The log2FC [4] was -1.29, the log2FC [5] was -0.701 and the log2FC [6] was -0.388. The log2FC [7] was 1.25, the log2FC [8] was 2.02 and the log2FC [9] was 1.09. It also gave a log2FC [10] of 0.413, a log2FC [11] of 2.1 and a log2FC [12] of -1.26. For the same molecule, the log2FC [13] was 2.43, the log2FC [14] was -0.71 and the log2FC [15] was 0.814. It also gave a log2FC [16] of -0.743, a log2FC [17] of -0.551 and a log2FC [18] of -1.36. It also gave a log2FC [19] of -1.15, a log2FC [20] of 0.746 and a log2FC [21] of -1.76. The log2FC [22] was 1.44, the log2FC [23] was -1.04 and the log2FC [24] was 0.977. The log2FC [25] was 0.958, the log2FC [26] was -0.729 and the log2FC [27] was 0.579. It also gave a log2FC [28] of -1.1, a log2FC [29] of -6.78 and a log2FC [30] of 0.782. The log2FC [31] was 0.779 and the log2FC [32] was 0.535.
